{"source": "patent US6613757B1", "about": "“COMBINATION OF PROSTACYCLIN WITH AN ESTROGEN OR PROGESTIN FOR THE PREVENTION AND TREATMENT OF ATHEROSCLEROTIC VASCULAR DISEASE INCLUDING PREECLAMPSIA AND FOR THE TREATMENT OF HYPERTENSION, AND FOR HORMONE REPLACEMENT THERAPY” (Board of Regents, The University of Texas System, priority 1994, dated 2003)", "key": {"[1]": {"test_system": "preeclamptic rats (L-NAME)", "experiment": "Blood pressure in L-NAME-induced preeclampsia model, pregnant and postpartum rats", "format": "in vivo, rat", "settings": "FIG. 3", "procedure": "These symptoms are related to the decrease in vascular resistance and placental perfusion. […] Preeclampsia was induced with an nitric oxide inhibitor L-NAME (25 mg/animal/day, s.c. infusion)."}, "[2]": {"test_system": "L-NAME-treated male rats", "experiment": "L-NAME-induced hypertension in male rats", "format": "in vivo, rat", "procedure": "FIG. 2 provides further evidence that progesterone can induce mechanisms which compensate the L-NAME-produced hypertension. This study was performed in male rats, showing pregnancy is not essential for this effect."}}, "note": "Entries after “also recorded” stand apart in the source; their conditions may differ. For at least one compound, name, drawing or mass did not settle the structure."}
{"smiles": "CC#C[C@]1(O)CC[C@H]2[C@@H]3CCC4=CC(=O)CCC4=C3[C@@H](c3ccc(N(C)C)cc3)C[C@@]21C", "note": "[RU 486]", "values": [{"measurement": "blood pressure post partum", "setting": "[1]; animals treated with L-NAME", "result": "elevates blood pressure; also recorded: further increase in blood pressure induced with L-NAME"}, {"measurement": "blood pressure in controls", "setting": "[1]; controls without L-NAME", "result": "slightly increases blood pressure"}, {"measurement": "blood pressure", "setting": "[2]", "result": "elevates blood pressure"}]}
